Data as given in publication PMC6713327.
These are yes or no findings as the source states them, for the method shown. Binding seen in cells or lysates may run through a third protein. Here binding means that the protein was enriched with, or labelled near, the bait; the list need not be complete.

T1: FANCA (human (endogenous in 293FT and EndoC-βH3)) (UniProt O15360)
T1 sequence: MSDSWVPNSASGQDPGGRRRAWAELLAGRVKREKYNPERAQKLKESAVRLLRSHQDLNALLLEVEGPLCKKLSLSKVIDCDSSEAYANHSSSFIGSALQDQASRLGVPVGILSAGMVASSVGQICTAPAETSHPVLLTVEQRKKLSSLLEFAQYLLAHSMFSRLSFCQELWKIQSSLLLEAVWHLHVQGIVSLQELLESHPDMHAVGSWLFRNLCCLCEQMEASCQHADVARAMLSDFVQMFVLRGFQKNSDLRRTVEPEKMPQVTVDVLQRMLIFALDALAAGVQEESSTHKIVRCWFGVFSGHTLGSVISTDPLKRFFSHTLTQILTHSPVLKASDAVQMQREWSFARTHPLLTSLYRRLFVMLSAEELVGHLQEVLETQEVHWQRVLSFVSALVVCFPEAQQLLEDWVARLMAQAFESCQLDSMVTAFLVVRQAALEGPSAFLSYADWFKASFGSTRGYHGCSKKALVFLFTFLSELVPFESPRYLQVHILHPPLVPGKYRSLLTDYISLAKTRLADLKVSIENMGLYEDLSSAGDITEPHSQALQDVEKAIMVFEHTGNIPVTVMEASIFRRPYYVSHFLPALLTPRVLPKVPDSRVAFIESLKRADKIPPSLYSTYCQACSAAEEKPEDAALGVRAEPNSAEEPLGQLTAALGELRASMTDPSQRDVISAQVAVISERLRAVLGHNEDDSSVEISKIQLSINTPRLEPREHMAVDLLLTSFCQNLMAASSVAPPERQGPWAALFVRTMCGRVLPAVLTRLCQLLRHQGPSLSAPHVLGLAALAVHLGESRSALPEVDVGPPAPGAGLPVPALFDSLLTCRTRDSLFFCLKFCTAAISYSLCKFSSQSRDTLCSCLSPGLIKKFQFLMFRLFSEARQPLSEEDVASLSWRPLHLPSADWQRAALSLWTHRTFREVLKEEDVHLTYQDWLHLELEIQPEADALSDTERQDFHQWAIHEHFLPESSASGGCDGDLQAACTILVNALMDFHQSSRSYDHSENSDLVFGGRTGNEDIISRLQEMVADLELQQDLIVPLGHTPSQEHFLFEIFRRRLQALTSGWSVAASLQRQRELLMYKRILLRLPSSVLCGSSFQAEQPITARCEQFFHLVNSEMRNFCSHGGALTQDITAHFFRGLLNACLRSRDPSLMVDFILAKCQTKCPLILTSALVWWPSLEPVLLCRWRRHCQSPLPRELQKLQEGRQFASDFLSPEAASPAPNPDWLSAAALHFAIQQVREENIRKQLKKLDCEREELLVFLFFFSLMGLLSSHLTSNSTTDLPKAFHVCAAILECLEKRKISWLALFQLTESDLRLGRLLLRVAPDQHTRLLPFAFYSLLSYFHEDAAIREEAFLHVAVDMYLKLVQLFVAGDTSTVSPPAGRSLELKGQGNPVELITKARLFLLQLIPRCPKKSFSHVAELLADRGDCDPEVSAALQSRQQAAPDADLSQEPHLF

B1: RAD17 (protein, UniProt O75943 1-681)
chain: MSKTFLRPKVSSTKVTDWVDPSFDDFLECSGVSTITATSLGVNNSSHRRKNGPSTLESSRFPARKRGNLSSLEQIYGLENSKEYLSENEPWVDKYKPETQHELAVHKKKIEEVETWLKAQVLERQPKQGGSILLITGPPGCGKTTTLKILSKEHGIQVQEWINPVLPDFQKDDFKGMFNTESSFHMFPYQSQIAVFKEFLLRATKYNKLQMLGDDLRTDKKIILVEDLPNQFYRDSHTLHEVLRKYVRIGRCPLIFIISDSLSGDNNQRLLFPKEIQEECSISNISFNPVAPTIMMKFLNRIVTIEANKNGGKITVPDKTSLELLCQGCSGDIRSAINSLQFSSSKGENNLRPRKKGMSLKSDAVLSKSKRRKKPDRVFENQEVQAIGGKDVSLFLFRALGKILYCKRASLTELDSPRLPSHLSEYERDTLLVEPEEVVEMSHMPGDLFNLYLHQNYIDFFMEIDDIVRASEFLSFADILSGDWNTRSLLREYSTSIATRGVMHSNKARGYAHCQGGGSSFRPLHKPQWFLINKKYRENCLAAKALFPDFCLPALCLQTQLLPYLALLTIPMRNQAQISFIQDIGRLPLKRHFGRLKMEALTDREHGMIDPDSGDEAQLNGGHSAEESLGEPTQATVPETWSLPLSQNSASELPASQPQPFSAQGDMEENIIIEDYESDGT
B2: FAAP20 (protein, UniProt Q6NZ36 1-180)
chain: MEAARRPRLGLSRRRPRPAGGPSGGRPWFLLGGDERERLWAELLRTVSPELILDHEVPSLPAFPGQEPRCGPEPTEVFTVGPKTFSWTPFPPDLWGPGRSYRLLHGAGGHLESPARSLPQRPAPDPCRAPRVEQQPSVEGAAALRSCPMCQKEFAPRLTQLDVDSHLAQCLAESTEDVTW
B3: PREB (protein, UniProt Q9HCU5 1-417)
chain: MGRRRAPELYRAPFPLYALQVDPSTGLLIAAGGGGAAKTGIKNGVHFLQLELINGRLSASLLHSHDTETRATMNLALAGDILAAGQDAHCQLLRFQAHQQQGNKAEKAGSKEQGPRQRKGAAPAEKKCGAETQHEGLELRVENLQAVQTDFSSDPLQKVVCFNHDNTLLATGGTDGYVRVWKVPSLEKVLEFKAHEGEIEDLALGPDGKLVTVGRDLKASVWQKDQLVTQLHWQENGPTFSSTPYRYQACRFGQVPDQPAGLRLFTVQIPHKRLRQPPPCYLTAWDGSNFLPLRTKSCGHEVVSCLDVSESGTFLGLGTVTGSVAIYIAFSLQCLYYVREAHGIVVTDVAFLPEKGRGPELLGSHETALFSVAVDSRCQLHLLPSRRSVPVWLLLLLCVGLIIVTILLLQSAFPGFL
B4: SEC24B (protein, UniProt O95487 1-1268)
chain: MSAPAGSSHPAASARIPPKFGGAAVSGAAAPAGPGAGPAPHQQNGPAQNQMQVPSGYGLHHQNYIAPSGHYSQGPGKMTSLPLDTQCGDYYSALYTVPTQNVTPNTVNQQPGAQQLYSRGPPAPHIVGSTLGSFQGAASSASHLHTSASQPYSSFVNHYNSPAMYSASSSVASQGFPSTCGHYAMSTVSNAAYPSVSYPSLPAGDTYGQMFTSQNAPTVRPVKDNSFSGQNTAISHPSPLPPLPSQQHHQQQSLSGYSTLTWSSPGLPSTQDNLIRNHTGSLAVANNNPTITVADSLSCPVMQNVQPPKSSPVVSTVLSGSSGSSSTRTPPTANHPVEPVTSVTQPSELLQQKGVQYGEYVNNQASSAPTPLSSTSDDEEEEEEDEEAGVDSSSTTSSASPMPNSYDALEGGSYPDMLSSSASSPAPDPAPEPDPASAPAPASAPAPVVPQPSKMAKPFGYGYPTLQPGYQNATAPLISGVQPSNPVYSGFQQYPQQYPGVNQLSSSIGGLSLQSSPQPESLRPVNLTQERNILPMTPVWAPVPNLNADLKKLNCSPDSFRCTLTNIPQTQALLNKAKLPLGLLLHPFRDLTQLPVITSNTIVRCRSCRTYINPFVSFIDQRRWKCNLCYRVNDVPEEFMYNPLTRSYGEPHKRPEVQNSTVEFIASSDYMLRPPQPAVYLFVLDVSHNAVEAGYLTILCQSLLENLDKLPGDSRTRIGFMTFDSTIHFYNLQEGLSQPQMLIVSDIDDVFLPTPDSLLVNLYESKELIKDLLNALPNMFTNTRETHSALGPALQAAFKLMSPTGGRVSVFQTQLPSLGAGLLQSREDPNQRSSTKVVQHLGPATDFYKKLALDCSGQQTAVDLFLLSSQYSDLASLACMSKYSAGCIYYYPSFHYTHNPSQAEKLQKDLKRYLTRKIGFEAVMRIRCTKGLSMHTFHGNFFVRSTDLLSLANINPDAGFAVQLSIEESLTDTSLVCFQTALLYTSSKGERRIRVHTLCLPVVSSLADVYAGVDVQAAICLLANMAVDRSVSSSLSDARDALVNAVVDSLSAYGSTVSNLQHSALMAPSSLKLFPLYVLALLKQKAFRTGTSTRLDDRVYAMCQIKSQPLVHLMKMIHPNLYRIDRLTDEGAVHVNDRIVPQPPLQKLSAEKLTREGAFLMDCGSVFYIWVGKGCDNNFIEDVLGYTNFASIPQKMTHLPELDTLSSERARSFITWLRDSRPLSPILHIVKDESPAKAEFFQHLIEDRTEAAFSYYEFLLHVQQQICK
B5: ATG4B (protein, UniProt Q9Y4P1 1-393)
chain: MDAATLTYDTLRFAEFEDFPETSEPVWILGRKYSIFTEKDEILSDVASRLWFTYRKNFPAIGGTGPTSDTGWGCMLRCGQMIFAQALVCRHLGRDWRWTQRKRQPDSYFSVLNAFIDRKDSYYSIHQIAQMGVGEGKSIGQWYGPNTVAQVLKKLAVFDTWSSLAVHIAMDNTVVMEEIRRLCRTSVPCAGATAFPADSDRHCNGFPAGAEVTNRPSPWRPLVLLIPLRLGLTDINEAYVETLKHCFMMPQSLGVIGGKPNSAHYFIGYVGEELIYLDPHTTQPAVEPTDGCFIPDESFHCQHPPCRMSIAELDPSIAVGFFCKTEDDFNDWCQQVKKLSLLGGALPMFELVELQPSHLACPDVLNLSLDSSDVERLERFFDSEDEDFEILSL
B6: ATG9A (protein, UniProt Q7Z3C6 1-839)
chain: MAQFDTEYQRLEASYSDSPPGEEDLLVHVAEGSKSPWHHIENLDLFFSRVYNLHQKNGFTCMLIGEIFELMQFLFVVAFTTFLVSCVDYDILFANKMVNHSLHPTEPVKVTLPDAFLPAQVCSARIQENGSLITILVIAGVFWIHRLIKFIYNICCYWEIHSFYLHALRIPMSALPYCTWQEVQARIVQTQKEHQICIHKRELTELDIYHRILRFQNYMVALVNKSLLPLRFRLPGLGEAVFFTRGLKYNFELILFWGPGSLFLNEWSLKAEYKRGGQRLELAQRLSNRILWIGIANFLLCPLILIWQILYAFFSYAEVLKREPGALGARCWSLYGRCYLRHFNELEHELQSRLNRGYKPASKYMNCFLSPLLTLLAKNGAFFAGSILAVLIALTIYDEDVLAVEHVLTTVTLLGVTVTVCRSFIPDQHMVFCPEQLLRVILAHIHYMPDHWQGNAHRSQTRDEFAQLFQYKAVFILEELLSPIVTPLILIFCLRPRALEIIDFFRNFTVEVVGVGDTCSFAQMDVRQHGHPQWLSAGQTEASVYQQAEDGKTELSLMHFAITNPGWQPPRESTAFLGFLKEQVQRDGAAASLAQGGLLPENALFTSIQSLQSESEPLSLIANVVAGSSCRGPPLPRDLQGSRHRAEVASALRSFSPLQPGQAPTGRAHSTMTGSGVDARTASSGSSVWEGQLQSLVLSEYASTEMSLHALYMHQLHKQQAQAEPERHVWHRRESDESGESAPDEGGEGARAPQSIPRSASYPCAAPRPGAPETTALHGGFQRRYGGITDPGTVPRVPSHFSRLPLGGWAEDGQSASRHPEPVPEEGSEDELPPQVHKV

These binders were tested against T1, FANCA (human (endogenous in 293FT and EndoC-βH3)) (assay: affinity purification with mass spectrometry; endogenous FANCA precipitated from 293FT lysate (NETN buffer) with anti-FANCA antibody coupled to Dynabeads, 2 h at 4°C; rabbit IgG as negative control; LC-MS/MS, SAINT (BFDR ≤ 0.05, SAINT score ≥ 0.8); biological duplicates).

binding, binds:
B1, B2

Each binder was assayed against T1, FANCA (human (endogenous in 293FT and EndoC-βH3)) (assay: affinity purification with mass spectrometry; endogenous FANCA precipitated from lysate of EndoC-βH3 cells cultured in 5 mM or 20 mM glucose, anti-FANCA antibody coupled to Dynabeads, 2 h at 4°C; LC-MS/MS, SAINT (BFDR ≤ 0.05, SAINT score = 1.0); biological duplicates).

binding, binds:
B3, B4, B5, B6
